Changes are numbered by the printed parent chain. Names may count otherwise. No constants are given. Whether binding was seen depends on the method and setting. For part of these data: Binding calls can cover weak binding; strength is not graded here.
Tests used:
[1] = molecular target: N-terminus of SLAH3 (SLAH3-NT), yeast two-hybrid bait (Arabidopsis thaliana); experiment: two-hybrid; yeast strain AH109; SLAH3 regions in pGBT9BS as bait, SnRK1.1 and its fragments in pGADGH as prey; growth on synthetic dropout medium -L-W-H-A
[2] = molecular target: C-terminus of SLAH3 (SLAH3-CT), yeast two-hybrid bait (Arabidopsis thaliana); experiment: as above

B1: SNF1-related protein kinase 1 (SnRK1.1), full length, yeast two-hybrid prey (protein, UniProt Q38997 1-512)
chain: MDGSGTGSRSGVESILPNYKLGRTLGIGSFGRVKIAEHALTGHKVAIKILNRRKIKNMEMEEKVRREIKILRLFMHPHIIRLYEVIETPTDIYLVMEYVNSGELFDYIVEKGRLQEDEARNFFQQIISGVEYCHRNMVVHRDLKPENLLLDSKCNVKIADFGLSNIMRDGHFLKTSCGSPNYAAPEVISGKLYAGPEVDVWSCGVILYALLCGTLPFDDENIPNLFKKIKGGIYTLPSHLSPGARDLIPRMLVVDPMKRVTIPEIRQHPWFQAHLPRYLAVPPPDTVQQAKKIDEEILQEVINMGFDRNHLIESLRNRTQNDGTVTYYLILDNRFRASSGYLGAEFQETMEGTPRMHPAESVASPVSHRLPGLMEYQGVGLRSQYPVERKWALGLQSRAHPREIMTEVLKALQDLNVCWKKIGHYNMKCRWVPNSSADGMLSNSMHDNNYFGDESSIIENEAAVKSPNVVKFEIQLYKTRDDKYLLDLQRVQGPQFLFLDLCAAFLAQLRVL
binding [1]: no binding
binding [2]: binds

B2: kinase-dead variant of SnRK1.1 (K48M), yeast two-hybrid prey (protein, UniProt Q38997 1-512)
chain: B1 chain with K48M
binding [2]: binds

Source: article PMC8154061
